# In the supplement of paper PMC3334620:
# The full ranking holds about 33,000 sequences; the median of “E-score (-0.5 to 0.5)” is about -0.0014, and the highest 2% start at about 0.25. The list shows a part of the results.
# Target: T1, Cad1 (UniProt P24813)
# T1 sequence: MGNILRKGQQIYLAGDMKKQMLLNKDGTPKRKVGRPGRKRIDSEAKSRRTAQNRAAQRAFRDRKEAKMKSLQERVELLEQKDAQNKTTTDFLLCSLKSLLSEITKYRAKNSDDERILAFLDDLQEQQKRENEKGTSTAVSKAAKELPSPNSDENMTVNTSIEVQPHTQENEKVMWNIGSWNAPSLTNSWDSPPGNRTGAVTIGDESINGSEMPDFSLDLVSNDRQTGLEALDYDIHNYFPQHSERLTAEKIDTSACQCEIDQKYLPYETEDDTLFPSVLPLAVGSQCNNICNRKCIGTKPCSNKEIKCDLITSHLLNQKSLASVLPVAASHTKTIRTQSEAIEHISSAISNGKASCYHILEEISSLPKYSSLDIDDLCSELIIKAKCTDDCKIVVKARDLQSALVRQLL
# Experiment: PBM E-score (8-mer binding enrichment) (E-score (-0.5 to 0.5)); higher = stronger / more preferred TF binding
# Conditions: protein concentration: 100 nM; construct: GST-full length
# Method in brief: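 Full-length yeast transcription factors or their DNA-binding domains, GST-tagged and expressed with PURExpress, were applied at about 100-200 nM to universal all-10-mer Agilent arrays. These arrays had been made double-stranded by primer extension on fresh or once-stripped slides. Detection used fluorescent anti-GST, normalisation used masliner, and E-scores for ungapped eight-base words pooled with reverse complements came from the Universal PBM Analysis Suite.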
row,Sequence,PBM E-score
1,CTATAGGC,-0.0641
2,CTTGAAAG,-0.0947
3,AGCTCAAG,-0.168
4,ACACTATG,-0.0993
5,ACTTGTAT,0.0376
6,GGGCAACC,0.0184
7,GTGTCTAA,0.0993
8,ACGACTTG,-0.14
9,ACGCAAAG,-0.045
10,AAAGTCCT,-0.105
11,AGACGAAG,-0.164
12,AACGTGGA,-0.0358
13,CGACGATA,0.02
14,AAATGCAA,-0.00746
15,CATGAAGA,-0.0229
16,AAGGGAGT,-0.298
17,GTCCTATA,0.0155
18,AAAGGGCA,-0.132
19,ATAAGACA,0.0499
20,TGGGAACA,-0.0827
21,CAACTTCA,-0.0119
22,AGTTCTGA,0.152

row,Sequence,PBM E-score
1,CGCGTATC,0.154
2,ATTCCGGG,0.122
3,AGGTAATC,0.142
4,AGCCCACG,0.0442
5,ACAACAGC,0.0732
6,CTGCTTAC,0.276
7,GAACCCGA,0.0447
8,CAGAACGC,-0.0323
9,GAATGAAC,0.0799
10,AGGTAACA,0.104
11,GCAATCCC,-0.0824
12,AAGCAGCG,0.104
13,ACAGTCGA,-0.25
14,AAAAGAAA,0.101
15,GCACTACC,0.063
16,CTGTTCTC,0.00998
17,CGCGAACC,0.0513
18,ATTCCTGC,0.0949
19,CGACAAAG,0.131
20,AAGTTTTC,0.178
21,GCAAACAC,-0.0216
22,GAGTCTCC,0.0534

row,Sequence,PBM E-score
1,CCCTCGGC,-0.197
2,CAAATCTA,0.124
3,CAGCCCCA,-0.0238
4,CCTATGAA,-0.1
5,GGATACAA,0.0493
6,GCAAGGTA,-0.0924
7,CAAAGGCG,-0.07
8,ATTGTGAA,0.0555
9,TGGGGACA,-0.214
10,AGACATTA,0.0651
11,GAGTCTCA,-0.119
12,CCTTAAAC,-0.032
13,CGGACCGA,0.134
14,CATTATTA,0.241
15,ACCTCGAG,0.22
16,CACCGCGG,0.215
17,ACCTCACA,-0.0106
18,AATACGAC,-0.1
19,CGAGAGAG,-0.0145
20,AACATTCA,0.0564
21,GGCGGCCC,-0.172
22,CCATTAGG,-0.337

# 3 neighbouring records already listed, for reference:
row,Sequence,PBM E-score
18,AATACGAC,-0.1
19,CGAGAGAG,-0.0145
20,AACATTCA,0.0564

# Continuation.

row,Sequence,PBM E-score
1,GTCGTTGA,-0.0827
2,CGAACGAG,-0.03
3,GGCCATAA,0.0255
4,CCGGATAC,-0.0652
5,AATACATC,0.157
6,AGCGGCTC,-0.0559
7,AATCTGGA,-0.00706
8,CTTTCTAA,0.154
9,ATACCCCA,0.0157
10,ACTTACTA,0.184
11,CGACTCAG,-0.0921
12,AGGATCAA,0.0592
13,ATAATCTG,-0.109
14,AAATCCCT,-0.0454
15,ACCCCACC,0.00584
16,CAAGATCA,-0.122
17,AGCTATCC,-0.222
18,TAGTGTGA,-0.166
19,AGTCGCGA,0.285
20,AAGTTACA,0.0493
